Measurements reported in US20260183437A1, “VHH ANTIBODY CONJUGATES WITH HETEROARYL CHELATORS” (ABDERA THERAPEUTICS INC., priority 2022, published 2026).

System: double stranded DNA
Assay: Polyreactivity ELISA
Type: binding
Conditions: 10 μg/mL VHH-Fc; signal normalized to non-coated well

Going from “H108: anti-HER2 VHH-Fc, FcRn mutant H435Q [Compound H108]” to “H109: anti-HER2 VHH-Fc, FcRn mutant Y463A (as printed) [Compound H109]”, the “Polyreactivity Assay Score, dsDNA” value falls from 1.663 to 1.579.

First: H106: anti-HER2 VHH-Fc, FcRn mutant S254A [Compound H106]
Second: H101: anti-HER2 VHH-Fc (2RS15d VHH, human IgG1 Fc); FcRn wt, Fc effector wt [Compound H101]
The “Polyreactivity Assay Score, dsDNA” value of the first is higher: 1.446 for the first, 1.406 for the second.

“H107: anti-HER2 VHH-Fc, FcRn mutant H310A [Compound H107]” was tested, and the “Polyreactivity Assay Score, dsDNA” value was 1.678.
